From paper doi:10.1101/2020.06.05.136150 (bioRxiv, 2020)
No constants are given. Whether binding was seen depends on the method and setting. Some binding calls cover weakened binding; strength is not graded here. For part of these data: Sequences can lack the tags named with a protein.

Chains of the proteins cited; added tags and fusions are not shown. Lines headed by an entry give the natural chain unless they say otherwise; changes in a name come on top.
UniProt P0A6S5: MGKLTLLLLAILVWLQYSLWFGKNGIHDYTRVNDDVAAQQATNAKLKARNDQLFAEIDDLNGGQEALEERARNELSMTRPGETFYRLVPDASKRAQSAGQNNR
UniProt P0AEN4: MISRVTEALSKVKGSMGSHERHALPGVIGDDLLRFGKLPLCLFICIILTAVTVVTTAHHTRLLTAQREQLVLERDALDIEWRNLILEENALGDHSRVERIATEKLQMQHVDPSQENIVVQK
UniProt P06136: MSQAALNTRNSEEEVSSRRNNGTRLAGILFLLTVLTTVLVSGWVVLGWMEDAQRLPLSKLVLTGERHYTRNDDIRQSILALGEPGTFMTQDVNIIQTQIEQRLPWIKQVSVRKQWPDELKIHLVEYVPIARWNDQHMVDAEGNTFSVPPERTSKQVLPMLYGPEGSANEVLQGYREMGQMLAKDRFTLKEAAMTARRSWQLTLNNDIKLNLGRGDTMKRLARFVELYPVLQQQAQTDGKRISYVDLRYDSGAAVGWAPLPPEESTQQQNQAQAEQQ

Assays:
[1] = biological target: T1, FITC labeled peptide (FITC-K69-Q93) of FtsN (E. coli); experiment: fluorescence polarisation
T1 sequence (peptide, FITC fluorophore attached at the N-terminus): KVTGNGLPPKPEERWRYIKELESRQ

[2] = biological target: T2, HisFtsN^130 (FtsN M1-R130) (E. coli) (UniProt P29131); experiment: co-expression and co-purification
T2 sequence: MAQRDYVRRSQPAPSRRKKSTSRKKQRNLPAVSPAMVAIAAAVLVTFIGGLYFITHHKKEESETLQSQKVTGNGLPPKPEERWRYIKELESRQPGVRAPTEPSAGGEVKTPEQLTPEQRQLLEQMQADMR

[3] = biological target: T3, HisFtsN (full length FtsN) (E. coli) (UniProt P29131); experiment: co-expression and co-purification
T3 sequence: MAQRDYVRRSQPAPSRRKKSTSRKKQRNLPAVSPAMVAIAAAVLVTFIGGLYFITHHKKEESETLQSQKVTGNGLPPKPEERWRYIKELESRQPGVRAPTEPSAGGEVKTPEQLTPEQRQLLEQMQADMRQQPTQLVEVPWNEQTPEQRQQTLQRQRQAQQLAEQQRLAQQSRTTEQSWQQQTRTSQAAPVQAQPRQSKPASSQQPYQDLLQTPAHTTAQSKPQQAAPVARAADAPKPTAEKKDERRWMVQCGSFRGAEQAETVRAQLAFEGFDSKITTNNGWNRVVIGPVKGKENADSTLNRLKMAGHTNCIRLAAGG

**Q.** “FtsBLQ complex (from UniProt P0A6S5;P0AEN4;P06136)” was tested. Which binding [1] did it give?
**A.** no binding

B1: PBP1b co-expressed with HisFtsN or HisFtsN^130 (enzyme, UniProt P02919 1-844)
chain: MAGNDREPIGRKGKPTRPVKQKVSRRRYEDDDDYDDYDDYEDEEPMPRKGKGKGKGRKPRGKRGWLWLLLKLAIVFAVLIAIYGVYLDQKIRSRIDGKVWQLPAAVYGRMVNLEPDMTISKNEMVKLLEATQYRQVSKMTRPGEFTVQANSIEMIRRPFDFPDSKEGQVRARLTFDGDHLATIVNMENNRQFGFFRLDPRLITMISSPNGEQRLFVPRSGFPDLLVDTLLATEDRHFYEHDGISLYSIGRAVLANLTAGRTVQGASTLTQQLVKNLFLSSERSYWRKANEAYMALIMDARYSKDRILELYMNEVYLGQSGDNEIRGFPLASLYYFGRPVEELSLDQQALLVGMVKGASIYNPWRNPKLALERRNLVLRLLQQQQIIDQELYDMLSARPLGVQPRGGVISPQPAFMQLVRQELQAKLGDKVKDLSGVKIFTTFDSVAQDAAEKAAVEGIPALKKQRKLSDLETAIVVVDRFSGEVRAMVGGSEPQFAGYNRAMQARRSIGSLAKPATYLTALSQPKIYRLNTWIADAPIALRQPNGQVWSPQNDDRRYSESGRVMLVDALTRSMNVPTVNLGMALGLPAVTETWIKLGVPKDQLHPVPAMLLGALNLTPIEVAQAFQTIASGGNRAPLSALRSVIAEDGKVLYQSFPQAERAVPAQAAYLTLWTMQQVVQRGTGRQLGAKYPNLHLAGKTGTTNNNVDTWFAGIDGSTVTITWVGRDNNQPTKLYGASGAMSIYQRYLANQTPTPLNLVPPEDIADMGVDYDGNFVCSGGMRILPVWTSDPQSLCQQSEMQQQPSGNPFDQSSQPQQQPQQQPAQQEQKDSDGVAGWIKDMFGSN
**Q.** B1 was tested. Which binding [2] did it give?
**A.** binds

**Q.** What about the binding [3] of the same molecule?
**A.** binds

B2: PBP1a (enzyme, UniProt P02918 1-850)
chain: MKFVKYFLILAVCCILLGAGSIYGLYRYIEPQLPDVATLKDVRLQIPMQIYSADGELIAQYGEKRRIPVTLDQIPPEMVKAFIATEDSRFYEHHGVDPVGIFRAASVALFSGHASQGASTITQQLARNFFLSPERTLMRKIKEVFLAIRIEQLLTKDEILELYLNKIYLGYRAYGVGAAAQVYFGKTVDQLTLNEMAVIAGLPKAPSTFNPLYSMDRAVARRNVVLSRMLDEGYITQQQFDQTRTEAINANYHAPEIAFSAPYLSEMVRQEMYNRYGESAYEDGYRIYTTITRKVQQAAQQAVRNNVLDYDMRHGYRGPANVLWKVGESAWDNNKITDTLKALPTYGPLLPAAVTSANPQQATAMLADGSTVALSMEGVRWARPYRSDTQQGPTPRKVTDVLQTGQQIWVRQVGDAWWLAQVPEVNSALVSINPQNGAVMALVGGFDFNQSKFNRATQALRQVGSNIKPFLYTAAMDKGLTLASMLNDVPISRWDASAGSDWQPKNSPPQYAGPIRLRQGLGQSKNVVMVRAMRAMGVDYAAEYLQRFGFPAQNIVHTESLALGSASFTPMQVARGYAVMANGGFLVDPWFISKIENDQGGVIFEAKPKVACPECDIPVIYGDTQKSNVLENNDVEDVAISREQQNVSVPMPQLEQANQALVAKTGAQEYAPHVINTPLAFLIKSALNTNIFGEPGWQGTGWRAGRDLQRRDIGGKTGTTNSSKDAWFSGYGPGVVTSVWIGFDDHRRNLGHTTASGAIKDQISGYEGGAKSAQPAWDAYMKAVLEGVPEQPLTPPPGIVTVNIDRSTGQLANGGNSREEYFIEGTQPTQQAVHEVGTTIIDNGEAQELF
**Q.** B2 was tested. Which binding [1] did it give?
**A.** no binding

B3: PBP3 (enzyme, UniProt P0AD68 1-577)
chain: MKAAAKTQKPKRQEEHANFISWRFALLCGCILLALAFLLGRVAWLQVISPDMLVKEGDMRSLRVQQVSTSRGMITDRSGRPLAVSVPVKAIWADPKEVHDAGGISVGDRWKALANALNIPLDQLSARINANPKGRFIYLARQVNPDMADYIKKLKLPGIHLREESRRYYPSGEVTAHLIGFTNVDSQGIEGVEKSFDKWLTGQPGERIVRKDRYGRVIEDISSTDSQAAHNLALSIDERLQALVYRELNNAVAFNKAESGSAVLVDVNTGEVLAMANSPSYNPNNLSGTPKEAMRNRTITDVFEPGSTVKPMVVMTALQRGVVRENSVLNTIPYRINGHEIKDVARYSELTLTGVLQKSSNVGVSKLALAMPSSALVDTYSRFGLGKATNLGLVGERSGLYPQKQRWSDIERATFSFGYGLMVTPLQLARVYATIGSYGIYRPLSITKVDPPVPGERVFPESIVRTVVHMMESVALPGGGGVKAAIKGYRIAIKTGTAKKVGPDGRYINKYIAYTAGVAPASQPRFALVVVINDPQAGKYYGGAVSAPVFGAIMGGVLRTMNIEPDALTTGDKNEFV
**Q.** With B3 as the molecule, how does the binding [1] read?
**A.** no binding

B4: FtsW-PBP3 complex (complex, UniProt P0ABG4;P0AD68)
chain 1: MRLSLPRLKMPRLPGFSILVWISTALKGWVMGSREKDTDSLIMYDRTLLWLTFGLAAIGFIMVTSASMPIGQRLTNDPFFFAKRDGVYLILAFILAIITLRLPMEFWQRYSATMLLGSIILLMIVLVVGSSVKGASRWIDLGLLRIQPAELTKLSLFCYIANYLVRKGDEVRNNLRGFLKPMGVILVLAVLLLAQPDLGTVVVLFVTTLAMLFLAGAKLWQFIAIIGMGISAVVLLILAEPYRIRRVTAFWNPWEDPFGSGYQLTQSLMAFGRGELWGQGLGNSVQKLEYLPEAHTDFIFAIIGEELGYVGVVLALLMVFFVAFRAMSIGRKALEIDHRFSGFLACSIGIWFSFQALVNVGAAAGMLPTKGLTLPLISYGGSSLLIMSTAIMMLLRIDYETRLEKAQAFVRGSR
chain 2: MKAAAKTQKPKRQEEHANFISWRFALLCGCILLALAFLLGRVAWLQVISPDMLVKEGDMRSLRVQQVSTSRGMITDRSGRPLAVSVPVKAIWADPKEVHDAGGISVGDRWKALANALNIPLDQLSARINANPKGRFIYLARQVNPDMADYIKKLKLPGIHLREESRRYYPSGEVTAHLIGFTNVDSQGIEGVEKSFDKWLTGQPGERIVRKDRYGRVIEDISSTDSQAAHNLALSIDERLQALVYRELNNAVAFNKAESGSAVLVDVNTGEVLAMANSPSYNPNNLSGTPKEAMRNRTITDVFEPGSTVKPMVVMTALQRGVVRENSVLNTIPYRINGHEIKDVARYSELTLTGVLQKSSNVGVSKLALAMPSSALVDTYSRFGLGKATNLGLVGERSGLYPQKQRWSDIERATFSFGYGLMVTPLQLARVYATIGSYGIYRPLSITKVDPPVPGERVFPESIVRTVVHMMESVALPGGGGVKAAIKGYRIAIKTGTAKKVGPDGRYINKYIAYTAGVAPASQPRFALVVVINDPQAGKYYGGAVSAPVFGAIMGGVLRTMNIEPDALTTGDKNEFV
**Q.** Which binding [1] does the source give for B4 here?
**A.** no binding
